The subject of this test is L1210 leukemia ip in BDF1 mice, survival T/C. Nature of the test: NCI In Vivo Anticancer Drug Screen. Data for tumor model L1210 Leukemia (intraperitoneal) in B6D2F1 (BDF1) mice. As to conditions: higher T/C = longer survival.
[1] abbreviates: T/C endpoint: mean survival time, dose: 200.0 mg/kg/injection, schedule: Q01DX001 (ip), vehicle: saline.
Setting [2] is: T/C endpoint: mean survival time, dose: 400.0 mg/kg/injection, schedule: Q01DX001 (ip), vehicle: saline.
Where [3] appears, read: T/C endpoint: mean survival time, dose: 400.0 mg/kg/injection, schedule: Q04DX003 (ip), vehicle: Klucel (hydroxypropylcellulose) (HPC).
[4] abbreviates: T/C endpoint: mean survival time, dose: 400.0 mg/kg/injection, schedule: Q04DX003 (ip), vehicle: saline.
The mark [5] stands for this setting: T/C endpoint: mean survival time, dose: 400.0 mg/kg/injection, schedule: Q01DX009 (ip), vehicle: Klucel (hydroxypropylcellulose) (HPC).
Where [6] appears, read: T/C endpoint: mean survival time, dose: 200.0 mg/kg/injection, schedule: Q01DX001 (ip), vehicle: carboxymethylcellulose (CMC).
Setting [7] is: T/C endpoint: mean survival time, dose: 400.0 mg/kg/injection, schedule: Q01DX001 (ip), vehicle: carboxymethylcellulose (CMC).
Where [8] appears, read: T/C endpoint: mean survival time, dose: 100.0 mg/kg/injection, schedule: Q01DX001 (ip), vehicle: saline.
Setting [9] is: T/C endpoint: mean survival time, dose: 200.0 mg/kg/injection, schedule: Q04DX002 (ip), vehicle: Klucel (hydroxypropylcellulose) (HPC).
The mark [10] stands for this setting: T/C endpoint: mean survival time, dose: 300.0 mg/kg/injection, schedule: Q01DX001 (ip), vehicle: carboxymethylcellulose (CMC).
[11] abbreviates: T/C endpoint: mean survival time, dose: 150.0 mg/kg/injection, schedule: Q01DX001 (ip), vehicle: saline.
Setting [12] is: T/C endpoint: mean survival time, dose: 300.0 mg/kg/injection, schedule: Q01DX001 (ip), vehicle: saline.
Where [13] appears, read: T/C endpoint: mean survival time, dose: 400.0 mg/kg/injection, schedule: Q01DX009 (ip), vehicle: saline with Tween-80.

Structures are written as SMILES. The list is a part of this screen's results and no random one: it is rich in T/C values a quarter to a half above the control, in often repeated tests (any T/C) and in doses without a T/C. Other doses and runs of a compound stand elsewhere. T/C gives the treated animals as a percentage of the vehicle group. Some entries give survivors of the animals treated and no T/C: the source holds a T/C of zero for them, seemingly a mark for toxic or unscored doses. Some doses without a T/C left all or most animals alive at the check, yet need not have been tolerated: the source hardly ever lists a survival T/C far under the control, and the zero likely stands for such cases as well. Survivors were counted at the toxicity check, usually on the fifth day, unless a day is given; later deaths do not show. Schedule codes are those of the source, read here as Q, the interval in days (D) or hours (H), X, the number of doses. For survival time, the PubChem record calls one and a half times the control and up active, and a quarter to a half above the control has no call in these data; cut-offs in other NCI protocols can differ. Some schedule codes hold Z or #, which are not explained here. Some T/C values carry the count of animals alive at the toxicity check (mostly the fifth day); without a count, all were alive then.

Turning to `O=C(O)C(Br)CBr` (configuration not stated), the survivor count is reported as 4 of 4 (T/C endpoint: mean survival time, dose: 50.0 mg/kg/injection, schedule: Q01DX001 (ip), vehicle: saline); 1 of 4 under setting [1]; 0 of 4 under setting [2].

With `N/C(=N\O)c1ccncc1`, the survivor count (T/C endpoint: mean survival time, dose: 400.0 mg/kg/injection, schedule: Q01DX009 (ip), vehicle: saline) is given as 0 of 6.

Take `CCOC(=O)/C(=C/c1ccc(C)cc1)P(=O)(OCC)OCC`: the survivor count runs as follows: under setting [1], 0 of 4; under setting [2], 0 of 4.

For `CCOC(=O)N1CCC(=C(C#N)c2ccccc2)CC1`, the survivor count under setting [3] was 1 of 6.

For `CCCCNC(=O)C1C2CC3OC(=O)C1C3C2` (configuration not stated), the survivor count is, setting by setting: (T/C endpoint: mean survival time, dose: 100.0 mg/kg/injection, schedule: Q04DX003 (ip), vehicle: saline) 3 of 4; (T/C endpoint: mean survival time, dose: 200.0 mg/kg/injection, schedule: Q04DX003 (ip), vehicle: saline) 0 of 4; under setting [4], 0 of 4.

Turning to `Clc1cc(C(Cl)(Cl)Cl)ccc1C(Cl)(Cl)Cl`, the survivor count is on record as 3 of 3 (T/C endpoint: mean survival time, dose: 100.0 mg/kg/injection, schedule: Q01DX009 (ip), vehicle: Klucel (hydroxypropylcellulose) (HPC)); 3 of 3 (T/C endpoint: mean survival time, dose: 200.0 mg/kg/injection, schedule: Q01DX009 (ip), vehicle: Klucel (hydroxypropylcellulose) (HPC)); 3 of 3 under setting [5].

In the case of `C/C=C/c1ccc2ccc[n+](C)c2c1O`, the survivor count is 2 of 4 under setting [6] and 0 of 4 under setting [7].

Consider `O=C(O)CCCCCNCc1cc(=O)[nH]c(=O)[nH]1`, for which the survivor count under setting [4] is 0 of 4.

`CCN1N=Nc2cccc3cccc1c23`: the survivor count (T/C endpoint: mean survival time, dose: 400.0 mg/kg/injection, schedule: Q04DX003 (ip), vehicle: acetone) is listed as 0 of 6.

For `O=S(=O)(c1ccc(O)c(F)c1)c1ccc(O)c(F)c1`, the survivor count (T/C endpoint: mean survival time, dose: 400.0 mg/kg/injection, schedule: Q04DX002 (ip), vehicle: gum acacia) is 3 of 3.

As for `CC(=O)c1ccc(NC(=S)Nc2ccc(C(C)=O)cc2)cc1`, where the note is “T/C endpoint: mean survival time, dose: 160.0 mg/kg/injection, schedule: Q01DX009 (ip), vehicle: saline with Tween-80”, the survivor count was 6 of 6.

As to `ClCCN(CCCl)CCCNc1cc(-c2ccc(Cl)cc2)nc2cc(Cl)ccc12`, the survivor count runs as follows: under setting [8], 2 of 4; under setting [2], 0 of 4.

Turning to `C/C=C/C[n+]1c(C)ccc2ccccc21`, the survivor count runs as follows: under setting [8], 2 of 6; under setting [1], 0 of 6; under setting [2], 0 of 6.

For `CC12CC3CC(C)(C1)CC(CN=C(N)CS)(C3)C2`, the survivor count is listed as 1 of 3 (T/C endpoint: mean survival time, dose: 10.0 mg/kg/injection, schedule: Q04DX002 (ip), vehicle: Klucel (hydroxypropylcellulose) (HPC)); 3 of 3 (T/C endpoint: mean survival time, dose: 20.0 mg/kg/injection, schedule: Q04DX002 (ip), vehicle: Klucel (hydroxypropylcellulose) (HPC)); 1 of 3 (T/C endpoint: mean survival time, dose: 40.0 mg/kg/injection, schedule: Q04DX002 (ip), vehicle: Klucel (hydroxypropylcellulose) (HPC)); 0 of 3 (T/C endpoint: mean survival time, dose: 100.0 mg/kg/injection, schedule: Q04DX002 (ip), vehicle: Klucel (hydroxypropylcellulose) (HPC)); 0 of 3 under setting [9]; 0 of 3 (T/C endpoint: mean survival time, dose: 400.0 mg/kg/injection, schedule: Q04DX002 (ip), vehicle: Klucel (hydroxypropylcellulose) (HPC)).

On to `CCCC(=O)NC(=S)Nc1ccccc1`, for which the survivor count was 2 of 6 (T/C endpoint: mean survival time, dose: 150.0 mg/kg/injection, schedule: Q01DX001 (ip), vehicle: carboxymethylcellulose (CMC)) and 0 of 6 under setting [10].

As for `CSc1ccc(C(=O)CCl)c(C)c1`, the survivor count is, setting by setting: (T/C endpoint: mean survival time, dose: 100.0 mg/kg/injection, schedule: Q01DX001 (ip), vehicle: carboxymethylcellulose (CMC)) 0 of 6; under setting [6], 1 of 6; under setting [7], 0 of 6.

Take `CC(=O)OC(C)C(C)Br` (configuration not stated): the survivor count is, setting by setting: under setting [9], 3 of 3; (T/C endpoint: mean survival time, dose: 400.0 mg/kg/injection, schedule: Q01DX001 (ip), vehicle: acetone) 2 of 6.

As for `COC1=C2C[C@@H](C)C[C@@H](OC)[C@@H](O)[C@H](C)/C=C(\C)[C@@H](OC(N)=O)[C@H](OC)/C=C\C=C(/C)C(=O)NC(=CC1=O)C2=O`, the survivor count (T/C endpoint: mean survival time, dose: 75.0 mg/kg/injection, schedule: Q01DX001 (ip), vehicle: saline) is on record as 0 of 6; the survivor count under setting [11] is 0 of 6; the survivor count under setting [12] was 0 of 6.

Take `O=C(C#Cc1ccccc1)/C=C/c1ccccc1`: the survivor count under setting [3] is listed as 1 of 6.

Consider `CN1CCC=C(C(=O)N(c2ccccc2)c2ccccc2)C1`, for which the survivor count under setting [4] is recorded as 2 of 6.

For `CCCCCN(C)/N=N/c1nc[nH]c1C(N)=O`, the T/C is, setting by setting: (T/C endpoint: mean survival time, dose: 25.0 mg/kg/injection, schedule: Q01DX009 (ip), vehicle: carboxymethylcellulose (CMC)) 130 % of control [5 of 6 alive]; (T/C endpoint: mean survival time, dose: 25.0 mg/kg/injection, schedule: Q01DX Z (ip), vehicle: carboxymethylcellulose (CMC)) 130 % of control; (T/C endpoint: mean survival time, dose: 42.0 mg/kg/injection, schedule: Q01DX015 (ip), vehicle: carboxymethylcellulose (CMC)) 128 % of control; (T/C endpoint: mean survival time, dose: 50.0 mg/kg/injection, schedule: Q01DX009 (ip), vehicle: carboxymethylcellulose (CMC)) 139 % of control; (T/C endpoint: mean survival time, dose: 50.0 mg/kg/injection, schedule: Q01DX Z (ip), vehicle: carboxymethylcellulose (CMC)) 127 % of control; (T/C endpoint: mean survival time, dose: 72.0 mg/kg/injection, schedule: Q01DX015 (ip), vehicle: carboxymethylcellulose (CMC)) 128 % of control. Moreover, for the setting “T/C endpoint: median survival time, dose: 50.0 mg/kg/injection, schedule: Q01DX011 (ip), vehicle: steroid suspending solution”, the T/C was 137 % of control. Moreover, the survivor count reads like this: (T/C endpoint: mean survival time, dose: 200.0 mg/kg/injection, schedule: Q01DX009 (ip), vehicle: carboxymethylcellulose (CMC)) 6 of 6; (T/C endpoint: mean survival time, dose: 200.0 mg/kg/injection, schedule: Q01DX015 (ip), vehicle: carboxymethylcellulose (CMC)) 6 of 6.

`Cc1ccc(C(=O)O)cc1`: the survivor count under setting [13] is 6 of 6.

Turning to `CCNC(C1CCCCC1)C(C)OC(=O)c1ccc(N)cc1` (configuration not stated), the survivor count is 1 of 6 under setting [11] and 0 of 6 under setting [12].

Consider `O=C(SCCN1CCCC1)N1c2ccccc2Sc2ccc(Cl)cc21`, for which, under setting [10], the survivor count is 0 of 6.

Take `CC(=O)OC1C=CCC2C(=O)C34CC=CC(OC(C)=O)C3(C(=O)c3ccccc3C4=O)C(=O)C12` (configuration not stated): the survivor count reads like this: (T/C endpoint: mean survival time, dose: 75.0 mg/kg/injection, schedule: Q04DX003 (ip), vehicle: saline) 6 of 6; (T/C endpoint: mean survival time, dose: 150.0 mg/kg/injection, schedule: Q04DX003 (ip), vehicle: saline) 6 of 6; (T/C endpoint: mean survival time, dose: 300.0 mg/kg/injection, schedule: Q04DX003 (ip), vehicle: saline) 6 of 6.

For the compound `C=CCOC(=O)C(=O)OCC=C`, the survivor count reads like this: (T/C endpoint: mean survival time, dose: 200.0 mg/kg/injection, schedule: Q01DX009 (ip), vehicle: saline with Tween-80) 4 of 6; under setting [13], 0 of 6.

Turning to `CC(=O)c1cccc(NC(=O)Nc2ccc(F)c([N+](=O)[O-])c2)c1`, the survivor count under setting [5] was 4 of 6.

For the compound `CCOC(=O)NCS(=O)(=O)c1ccccc1-c1ccccc1`, the survivor count under setting [3] is 2 of 6.

With `c1ccc(-c2ccc([Si](c3ccc(-c4ccccc4)cc3)(c3ccc(-c4ccccc4)cc3)c3ccc(-c4ccccc4)cc3)cc2)cc1`, the survivor count runs as follows: (T/C endpoint: mean survival time, dose: 100.0 mg/kg/injection, schedule: Q04DX003 (ip), vehicle: gum acacia) 6 of 6; (T/C endpoint: mean survival time, dose: 200.0 mg/kg/injection, schedule: Q04DX003 (ip), vehicle: gum acacia) 6 of 6; (T/C endpoint: mean survival time, dose: 400.0 mg/kg/injection, schedule: Q04DX003 (ip), vehicle: gum acacia) 6 of 6.

Turning to `O=[N+]([O-])c1cccc2c1CCCC2`, the survivor count (T/C endpoint: mean survival time, dose: 100.0 mg/kg/injection, schedule: Q01DX009 (ip), vehicle: saline with Tween-80) is 6 of 6.

Consider `COc1ccc(C(=O)c2cccs2)cc1`, for which the survivor count under setting [3] is reported as 6 of 6.

For the origin of these results see PubChem BioAssay AID248 (DTP/NCI, 2004).
